# Construct, isoform or probe ends are uncertain for at least one entry. At least one verdict was read from the data and is not stated in words by the source.
# Target: SLBP (histone stem-loop binding protein) (UniProt Q14493)
# Experiment: EMSA
# Details: with T-1 trigger; none; EMSA: 1x NT2 buffer, 1 mM DTT, RNaseOUT, 50 uL, room temperature 1 h, 1.25 ug SLBP (~37 pmol), native 8% PAGE in 1x TB; recombinant protein
sequence,measurement,value
GGGCAAACACCAUUGUCAAAAGGCUCUUUUCAGAGCCACACUCCA / UGGAGUGUGACAAUGGUGUUUG [B-1a + T-1 (trans-3WJ)],binding result,binds

# — publication PMC5368982
